Earlier results as cited in US20210346383A1, “COMPOUNDS, COMPOSITIONS AND METHODS FOR TREATING OR PREVENTING HER-DRIVEN CANCERS” (Rain Therapeutics Inc., priority 2018, published 2021).
For at least one compound, name, drawing or mass did not settle the structure.

Test system: PC9 brain metastasis model
Details: 100 mg/kg; cited from earlier work

C=CC(=O)Nc1cccc(Nc2nc(Nc3ccc(N4CCN(C(C)=O)CC4)cc3OC)ncc2C(F)(F)F)c1 [rociletinib]
survival benefit: no survival benefit was observed | tumor regression: no tumor regression was achieved
